The results in this text go back to article PMC12784972.

By UniProt entry, the sequences of proteins in these tests, tags left out.
UniProt Q62093: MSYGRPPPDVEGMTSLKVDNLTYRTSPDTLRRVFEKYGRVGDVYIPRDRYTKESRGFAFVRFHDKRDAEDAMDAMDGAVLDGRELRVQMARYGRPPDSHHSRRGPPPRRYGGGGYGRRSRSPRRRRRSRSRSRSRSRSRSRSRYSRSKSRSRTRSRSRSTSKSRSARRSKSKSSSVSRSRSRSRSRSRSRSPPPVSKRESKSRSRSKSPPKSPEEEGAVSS

This experiment has as its target TDP43^ΔNLS (UniProt Q921F2). As to the kind of experiment: co-IP; transfected cells, 48 h; lysis buffer 50 mM Tris-HCl pH 7.5, 150 mM NaCl, 10% glycerol, 0.5% NP-40; IP with anti-MYC beads 4 h at 4°C; TDP43 and its mutants with SRSF2 (Fig. 8C,D).

These are yes or no findings as the source states them, for the method shown. Binding seen in cells or lysates may run through a third protein.

As for “SRSF2 (SC35), expressed in transfected cells for co-IP (from UniProt Q62093 1-221)”, the binding result is listed as “no binding”.
